These results are taken from US20210198672A1, “APTAMER FOR SCLEROSTIN AND USE THEREOF” (APTACURE THERAPEUTICS LIMITED, published 2021).

This series concerns the target T1, sclerostin (SOST) (Homo sapiens) (UniProt Q9BQB4).
T1 sequence: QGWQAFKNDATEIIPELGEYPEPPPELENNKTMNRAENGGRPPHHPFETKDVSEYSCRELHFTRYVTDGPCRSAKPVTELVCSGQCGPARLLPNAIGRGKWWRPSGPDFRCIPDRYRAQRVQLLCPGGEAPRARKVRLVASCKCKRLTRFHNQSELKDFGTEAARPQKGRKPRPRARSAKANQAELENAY
As to the kind of experiment: ELONA. The following applies: low binding, curve could not be fitted; purified recombinant protein; label: biotin (binding assay); single-stranded DNA; variant of aptscl 3.

A weaker result is weaker than the reference pair of the same experiment. Tags and fusion partners may be left off the protein sequences shown.

Regarding TGTTGTACATCGCCTTACGCACGTG [aptscl 3-6], the binding result is on record as “binds more weakly”.
